Among the data in paper doi:10.1101/2024.05.31.596772 are binding values, retold here.

In this assay the target is microtubules (pig (purified from porcine brain)). The assay can be described thus: in vitro microtubule dynamics assay.

Results are given in words; binding and its absence hold for the method and conditions named. Binding can be weak; no strength is given. Sequences can lack the tags named with a protein.

B1: GFP-CAMSAP3 (protein, UniProt Q80VC9 1-1252)
chain: MVEAAPAGSGPLRRTFLVPEIKSLDQYDFSRAKAAASLAWVLRAAFGGAEHVPPELWEPFYTDQYAQEHVKPPVTRLLLSAELYCRAWRQALPQLEPSPSPSALLALLARRGTVPSLPEHPVREADLKHQPILMGAHLAVIDALMVAFSFEWTKTLPGPLALSSLEHKLLFWVDTTVRRLQEKTEQEAAQRASPAAPLDGASPAQPSIRYRKDRAIARRAPCFPNVTTLQDLASGAALAATIHCYCPQLLRLEEVCLKDPMSVADSLYNLQLVQDFCASHLPRGCPLSLEDLLYVPPPLKVNLVVLLAEMYMCFEVLKPDFVQAKDLPDGHAVSPRNTETVPSQNNSGSSSPVFNFRHPLLSPGGPQSPLRGSTGSLKSSPSMSHMEALGKAWNRQLSRPLSQAVSFSTPFGLDSDVDVVMGDPVLLRSVSSDSLGPPRPVSTSSRNSAQPAPESGDLPTIEEALQIIHSAEPRLLPDGAADGSFYLHSPEGLSKPPLSPYPPEGASKPLSDRLNKAPIYISHPENPSKSSPCSTGEILKPPPPSEGSPKAVASSPAANNSEVKMTSFAERKKQLVKAEAESGLGSPTSTPVAPEALSSEMSELGARLEEKRRAIEAQKRRIEAIFAKHRQRLGKSAFLQVQPREAAGEAEEEAELGSVPGGERPAGEGQGEPSLRHKSVTFSPDLGPVPPEGLGDYNRAVSKLSAALSSLQRDMQRLTDQQQRLLAPPEAPGPAPPPAAWVIPGPATGPKAASPSPARRAPAARRSPGPGPSPTPRSPKHARPAELKLAPLTRVLTPPHDVDSLPHLRKFSPSQVPVQTRSSILLSEGTPPEEPTTKPALIEIPLASLGEPAADEEGDGSPPGAEDSLEEEASSEGEPRSGLGFFYKDEDKPEDEMAQKRASLLERQQRRVEEARRRKQWQEAEKEQKREEAARLAQEAPGLAFTTPVVASAAPVATLAPTTRAMAPAEEEVGPRRGDFTRLEYERRAQLKLMDDLDKVLRPRASGTGGPGRGGRRATRPRSGCCDDSALARSPARGLLGSRLSKVYSQSTLSLSTVANEAPNNLGVKRPTSRAPSPSGLMSPSRLPGSRERDWENGSNASSPASVPEYTGPRLYKEPSAKSNKFIIHNALSHCCLAGKVNEPQKNRILEEIEKSKANHFLILFRDSSCQFRALYTLSGETEELSRLAGYGPRTVTPAMVEGIYKYNSDRKRFTQIPAKTMSMSVDAFTIQGHLWQSKKPTTPKKGGGTPK
Take B1: the binding entry was “binds”.

B2: GFP-CAMSAP3 CKK (domain or fragment, UniProt Q80VC9 1112-1246)
chain: GPRLYKEPSAKSNKFIIHNALSHCCLAGKVNEPQKNRILEEIEKSKANHFLILFRDSSCQFRALYTLSGETEELSRLAGYGPRTVTPAMVEGIYKYNSDRKRFTQIPAKTMSMSVDAFTIQGHLWQSKKPTTPKK
As to B2, the binding entry was “binds”.
